Results as given in patent publication US20110189284A1, “Peptide Fibres” (UNIVERSITY OF BRISTOL, priority 2009, published 2011).
Results are given in words; binding and its absence hold for the method and conditions named. Some results given as binding are weak or reduced against the parent protein; the word gives no strength.

Target: T1, hSAFAAA-W p2
T1 sequence (peptide): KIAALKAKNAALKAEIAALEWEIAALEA
Test: CD, TEM and gel formation of the mixed peptides

- binding: binds
Binder: KIAALKAKIAALKAEIAALEWENAALEA [hSAFAAA-W p1]
